The numbers were not newly measured in article PMC3121697, “Predicting Binding to P-Glycoprotein by Flexible Receptor Docking” (PLoS Computational Biology, 2011), which cites them from elsewhere.

This data set concerns P-gp. Particulars: cited from earlier work.
Setting [1] is: Table S4, Doan et al. dataset, both assays positive or both negative.

Molecules are shown by their SMILES. Read-outs that look alike come from different tables or passages of the source.

For the molecule `CC(C)NC[C@@H](O)COc1ccc(CC(N)=O)cc1` [(R)-Atenolol], the P-gp interaction entry under setting [1] is given as “N”.
`CC(C)NC[C@H](O)COc1ccc(CC(N)=O)cc1` [(S)-Atenolol]: the P-gp interaction result under setting [1] was “N”.
As for `CCN(CC)CC(=O)Nc1c(C)cccc1C` [Lidocaine], the P-gp interaction result under setting [1] is recorded as “N”.
Regarding `O=C1CN=C(c2ccccc2)c2cc(Cl)ccc2N1` [Nordazepam], the P-gp interaction entry (not told) is “N”.
